PubChem BioAssay AID1053208 – Peter MacCallum Cancer Centre | 2014
Screen: 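Synthetic lethal interactions between gene loss and doxorubicin in osteosarcoma cells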 (primary screen). Cell system: mouse osteosarcoma cells, early-passage culture from an engineered mouse model of fibroblastic bone tumour. Reagents: siRNA pool against mouse genes, 40 nM. Timing: about 120 h (48 h before drug, then 72 h with drug). Challenge: doxorubicin 100 nM for 72 h, roughly 30-40% inhibitory dose. Read-out: 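Viability read as ATP luminescence after 72 h of 100 nM doxorubicin or none, duplicate wells averaged, scaled to non-targeting siRNA, then expressed as robust z-scores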. Reading the numbers: viability z-score with doxorubicin: higher = more viable cells under doxorubicin; viability z-score without drug: higher = more viable cells with knock-down alone. Call rule: 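Called active if knock-down leaves viability unchanged without drug (z within -2 to 2) but lowers it with doxorubicin (z at or under -2)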.
This is an unselected part of about 17,000 deposited reagents. Of all reagents, 788 (4.7%) are marked active. 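Calls rest on z-score classes alone; an extra cut-off of viability at most 70% of control was not applied to them.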 Reagents against one gene are numbered here. Further read-outs or replicates are left out here.

gene knocked down	reagent	combined z-score class	viability z-score with doxorubicin	viability z-score without drug	activity call
Dhrs7b	1	no change with or without drug	0.11	-0.17	inactive
Ythdc1	1	low cell count with doxorubicin only	-3.15	-0.17	active
Klhl2	1	no change with or without drug	-1.57	0.17	inactive
Vmp1	1	low cell count without drug only	0.22	-2.87	inactive
Efcab6	1	no change with or without drug	-0.45	0.84	inactive
Prss12	1	no change with or without drug	0.22	0.34	inactive
Pkn2	1	no change with or without drug	-1.35	-1.18	inactive
Cep85	1	no change with or without drug	0.79	0.51	inactive
Il18bp	1	no change with or without drug	-0.9	-1.69	inactive
Rundc1	1	no change with or without drug	-1.8	0.17	inactive
5330426L24Rik	1	no change with or without drug	-1.12	0.17	inactive
Kank2	1	no change with or without drug	-0.67	1.18	inactive
Klra4	1	no change with or without drug	0.9	0.17	inactive
Rnf25	1	no change with or without drug	-1.12	-0.17	inactive
Slc45a3	1	low cell count with doxorubicin only	-2.81	0.84	active
2410018L13Rik	1	high cell count with doxorubicin only	2.59	1.85	inactive
Cdk20	1	no change with or without drug	-0.22	-1.69	inactive
Erbb2	1	no change with or without drug	-1.01	-0.84	inactive
1700020N01Rik	1	no change with or without drug	0.45	-0.84	inactive
Batf2	1	no change with or without drug	-1.35	-0.51	inactive
Cox6a1	1	no change with or without drug	-0.45	0	inactive
Ubxn8	1	no change with or without drug	0.45	-1.01	inactive
Prl7d1	1	no change with or without drug	0.56	-1.01	inactive
Pkp2	1	no change with or without drug	0	-0.51	inactive
Opn1mw	1	no change with or without drug	1.69	-0.51	inactive
Gpr12	1	no change with or without drug	-0.9	-1.35	inactive
Hk2	1	no change with or without drug	0.67	0.84	inactive
Or8k24	1	no change with or without drug	-1.69	-1.52	inactive
Irx1	1	no change with or without drug	0	-0.51	inactive
Rxfp4	1	no change with or without drug	0.22	-0.17	inactive
Ascc2	1	no change with or without drug	-0.11	0.17	inactive
Usp12	1	no change with or without drug	-0.67	-0.51	inactive
Osm	1	no change with or without drug	-1.24	-0.17	inactive
Ap2m1	1	no change with or without drug	0.9	0.51	inactive
H1f0	1	no change with or without drug	0.45	1.85	inactive
Pink1	1	no change with or without drug	0.45	0.84	inactive
Insrr	1	no change with or without drug	0	0.17	inactive
ZFP236	1	no change with or without drug	0	-0.67	inactive
Klra1	1	no change with or without drug	1.12	1.85	inactive
Calcrl	1	no change with or without drug	-1.8	-0.51	inactive
Or1e23	1	no change with or without drug	0.22	-0.51	inactive
Ankef1	1	no change with or without drug	-1.12	0.34	inactive
Gnl3	1	no change with or without drug	-1.35	-0.84	inactive
Klrc2	1	no change with or without drug	-0.22	-1.35	inactive
Ndnf	1	low cell count with doxorubicin only	-2.36	-1.52	active
Fam98a	1	high cell count without drug only	0.45	2.19	inactive
Ncaph2	1	no change with or without drug	0.9	-0.51	inactive
Ncam1	1	no change with or without drug	0.22	-0.84	inactive
H2-T22	1	no change with or without drug	0	0.17	inactive
H2-T22	2	low cell count with doxorubicin only	-2.47	-0.17	active
H2-T22	3	no change with or without drug	0.34	-0.17	inactive
Asb14	1	low cell count with doxorubicin only	-4.38	-0.51	active
Rbfox1	1	no change with or without drug	-0.34	-1.18	inactive
Izumo4	1	no change with or without drug	-0.45	-0.84	inactive
Phkg2	1	no change with or without drug	0	0.51	inactive
Magee1	1	no change with or without drug	0.22	-0.84	inactive
Trappc5	1	no change with or without drug	0	0	inactive
Zpbp	1	no change with or without drug	0.22	1.52	inactive
Trim33	1	no change with or without drug	-1.12	0.17	inactive
Banf1	1	no change with or without drug	-1.69	-1.18	inactive
Fig4	1	no change with or without drug	-1.57	-0.84	inactive
Trf	1	no change with or without drug	-0.56	-0.17	inactive
Vnn3	1	no change with or without drug	-1.24	-0.84	inactive

Entries listed so far whose target name begins with C or c:
gene knocked down	reagent	combined z-score class	viability z-score with doxorubicin	viability z-score without drug	activity call
Cep85	1	no change with or without drug	0.79	0.51	inactive
Cdk20	1	no change with or without drug	-0.22	-1.69	inactive
Cox6a1	1	no change with or without drug	-0.45	0	inactive
Calcrl	1	no change with or without drug	-1.8	-0.51	inactive
